## Library screen at single concentrations

By UniProt entry, the sequences of proteins in these tests, tags left out. Residues count along the entry.
UniProt A4I591, 1-473: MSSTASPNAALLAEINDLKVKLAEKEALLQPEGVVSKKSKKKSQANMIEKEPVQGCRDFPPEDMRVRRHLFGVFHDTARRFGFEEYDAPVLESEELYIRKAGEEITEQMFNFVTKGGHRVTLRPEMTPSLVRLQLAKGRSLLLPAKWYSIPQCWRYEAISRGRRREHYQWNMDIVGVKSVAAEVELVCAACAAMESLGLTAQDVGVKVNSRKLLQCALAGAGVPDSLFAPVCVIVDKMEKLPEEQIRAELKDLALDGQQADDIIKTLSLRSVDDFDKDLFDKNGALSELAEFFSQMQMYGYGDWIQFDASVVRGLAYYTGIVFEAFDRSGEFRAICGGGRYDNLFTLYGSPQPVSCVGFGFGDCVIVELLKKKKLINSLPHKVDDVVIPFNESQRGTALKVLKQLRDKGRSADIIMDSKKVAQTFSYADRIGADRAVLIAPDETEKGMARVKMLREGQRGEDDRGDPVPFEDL
UniProt P9WFT3, whole entry: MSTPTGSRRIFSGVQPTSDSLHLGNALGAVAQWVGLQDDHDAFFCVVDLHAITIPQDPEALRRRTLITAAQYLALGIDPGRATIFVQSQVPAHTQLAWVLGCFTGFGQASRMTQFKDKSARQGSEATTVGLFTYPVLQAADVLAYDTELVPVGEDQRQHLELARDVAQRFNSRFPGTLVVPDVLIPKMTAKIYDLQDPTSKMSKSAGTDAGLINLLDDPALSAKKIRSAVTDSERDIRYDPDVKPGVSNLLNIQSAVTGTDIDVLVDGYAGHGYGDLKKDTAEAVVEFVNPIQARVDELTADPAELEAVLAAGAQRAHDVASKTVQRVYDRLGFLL
UniProt P9WNZ1, whole entry: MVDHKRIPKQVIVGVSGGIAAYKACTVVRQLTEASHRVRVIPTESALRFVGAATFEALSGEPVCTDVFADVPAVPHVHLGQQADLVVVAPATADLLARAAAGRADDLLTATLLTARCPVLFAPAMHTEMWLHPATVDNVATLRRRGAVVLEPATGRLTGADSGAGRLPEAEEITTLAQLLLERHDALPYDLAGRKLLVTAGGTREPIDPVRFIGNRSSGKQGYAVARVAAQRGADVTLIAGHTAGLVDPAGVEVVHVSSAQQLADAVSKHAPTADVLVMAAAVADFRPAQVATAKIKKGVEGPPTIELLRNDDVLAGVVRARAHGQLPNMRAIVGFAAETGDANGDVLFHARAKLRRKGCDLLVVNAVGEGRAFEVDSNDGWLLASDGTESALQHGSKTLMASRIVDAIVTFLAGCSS

From ChEMBL document CHEMBL3988442, “University of Dundee, Small-Polar-MMV Screening Library” (2021).

The filed quantity is “Percent Effect” (%). The controls that fix the scale are not given in the record; negative values are as filed. This is an unselected part of the compounds tested.

LiHisRS: 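Histidine-tRNA ligase, Leishmania infantum (UniProt A4I591). Enzyme assay of histidyl-tRNA synthetase; the read-out is not stated. Concentration: 30 µM. Higher reads as stronger inhibition (inferred: compounds with an IC50 in retests scored well above the rest). The assay is labelled LdHisRS but filed under L. infantum. Of about 69,000 compounds tested this way, about 410 (0.6%) reached 50% or more in at least one test.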
MtTrpRS: 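Tryptophan-tRNA ligase, Mycobacterium tuberculosis (UniProt P9WFT3). Enzyme assay of tryptophanyl-tRNA synthetase; the read-out is not stated. Tested at 10 µM. Higher most likely means stronger inhibition; the record gives no direction and few retests gave an IC50. Of about 65,000 compounds tested this way, about 64 (0.098%) reached 50% or more in at least one test.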
Toxoplasma: 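Assay of Toxoplasma gondii numbers, read through their beta-galactosidase reporter with a colour substrate. Tested at 10 µM. Higher reads as fewer parasites (inferred from which compounds were picked for retests). Size under these conditions: about 67,000 compounds, about 260 of them at 50% or above in at least one test.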
CoaBC: 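Coenzyme A biosynthesis protein CoaBC, Mycobacterium tuberculosis (UniProt P9WNZ1). Enzyme assay of CoaBC with a phosphate dye (Biomol Green) read at 650 nm. Concentration: 30 µM. Higher reads as stronger inhibition, judged from the few compounds that gave an IC50. Most strong results did not repeat in a second test. About 67,000 compounds were tested under these conditions; 0.06% (about 40) showed 50% or more at least once.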

Result for CNC(=O)C(C)(C)CNC(=O)Nc1cc(C)ccn1 was LiHisRS: 5.128%; MtTrpRS: -10.64%; Toxoplasma: 9.785%; CoaBC: 1.282%.
Result for Cc1cc(-c2nn(C)c(Cl)c2CN2CC[C@@](O)(C3CCC3)[C@H](C)C2)no1 was LiHisRS: 19.44%; MtTrpRS: 3.645%; Toxoplasma: -3.373%; CoaBC: -3.571%.
Result for CC(NCc1ccc(C(N)=O)cc1)c1ccc(Cl)c(Cl)c1.Cl (stereo not drawn) was Toxoplasma: -6.199%.
Result for Cc1cc(C2CCCN(CC(=O)N3CCc4ccccc43)C2)n[nH]1 (stereo not drawn) was LiHisRS: 11.4%; MtTrpRS: -3.988%; Toxoplasma: 2.869%; CoaBC: 5.987%.
Result for O=C(NCc1csc(Br)c1)c1ccncc1 was LiHisRS: 27.03%; MtTrpRS: 2.827%; Toxoplasma: -2.081%; CoaBC: 9.922%.
Result for O=C(Nc1cccc2c1CCCC2)C1CCCN1c1nccs1 (stereo not drawn) was LiHisRS: 10.64%; MtTrpRS: -0.3712%; Toxoplasma: -12.56%; CoaBC: 4.145%.
Result for CCCC(=O)N(CC)C(c1cccnc1)c1ccc2c(c1)CCO2 (stereo not drawn) was LiHisRS: 8.065%; MtTrpRS: 2.155%; Toxoplasma: 17.36%; CoaBC: 1.333%.
Result for O=c1cccnn1CC1CN(Cc2ccsc2)Cc2nccn2C1 (stereo not drawn) was LiHisRS: 17.65%; MtTrpRS: 0.4794%; CoaBC: -1.931%.
Result for CN(Cc1ccc(-n2cccn2)cc1)C[C@@H]1CCCN2CCCC[C@H]12 was LiHisRS: -13.33%; MtTrpRS: -2.106%; CoaBC: -0.4866%.
Result for Cc1cc(C)n(C2CN(Cc3ccc(C(=O)N4CCCC4)cc3)C2)n1 was LiHisRS: 18.18%; MtTrpRS: -3.027%; Toxoplasma: -11.95%; CoaBC: 3.831%.
Result for COCCN1CCN(Cc2ccncc2)c2ncccc2C1 was LiHisRS: 11%; MtTrpRS: -6.141%; CoaBC: 0.618%.
Result for COc1ccc(S(=O)(=O)NCCCc2nnc3nc(C)cc(C)n23)cc1 was LiHisRS: 4.348%; MtTrpRS: 3.099%; Toxoplasma: 9.837%; CoaBC: 1.695%.
Result for O=C(O)C(F)(F)F.[H][C@@]12CN(C(=O)c3ccccc3)CCO[C@]1([H])CN(c1ccc(C)nn1)C2 was Toxoplasma: 1.543%.
Result for O=C(Cc1ccc(F)cc1)NS(=O)(=O)c1ccc(F)c(F)c1 was LiHisRS: 11.69%; MtTrpRS: 2.414%; Toxoplasma: 2.008%; CoaBC: 3.481%.
Result for CC(C)CNc1cc(-c2c[nH]nc2C2CCN(C(=O)C3CC3)C2)ccn1 (stereo not drawn) was LiHisRS: 15.49%; MtTrpRS: -2.639%; Toxoplasma: 86.59%; CoaBC: 0.9864%.
Result for Cn1nc(CN2CCCC2)c2c1CN(c1cnccn1)CC2.O=C(O)C(F)(F)F.O=C(O)C(F)(F)F was Toxoplasma: 0.5557%.
Result for CCc1ccccc1CN1CCC(N2CCCC2=O)CC1 was LiHisRS: 20.65%; MtTrpRS: 1.711%; Toxoplasma: 1.348%; CoaBC: 2.058%.
Result for Cc1ccc2nc(CN3CCCCC3C(=O)N3CCOCC3)cn2c1 (stereo not drawn) was LiHisRS: 15.66%; MtTrpRS: 2.601%; Toxoplasma: -15.84%; CoaBC: 12.42%.
Result for CCC(=O)N1CCC2(CC1)C(=O)N(C)CCN2Cc1csc(C)n1.O=C(O)C(F)(F)F was Toxoplasma: -0.177%.
Result for N#Cc1cnc(NCc2ccc(C(=O)NC3CC3)cc2)c(Cl)c1 was LiHisRS: 8.219%; MtTrpRS: -2.006%; Toxoplasma: -25.36%; CoaBC: -0.3984%.
Result for CN(C)CCOCC1CN(Cc2ccccn2)Cc2nnn(C)c21 (stereo not drawn) was LiHisRS: 16.67%; MtTrpRS: -11.89%; CoaBC: -6.914%.
Result for CN(CCC#N)C(=O)Cn1cnc2c(Br)cccc2c1=O was LiHisRS: 3.109%; MtTrpRS: -1.943%; Toxoplasma: 7.803%; CoaBC: 4.204%.